No constants are given. Whether binding was seen depends on the method and setting. A result given as binding can be weak or reduced; the word gives no strength.
Molecular target: GST-fused Clr4 N-terminus (GST-Clr4-N, amino acids 1-191) (S. pombe) (UniProt O60016)
Test: pull-down; GST-fused Clr4 (0.2 nmol) on Glutathione Magnetic Agarose Beads, 0.2 nmol MBP-fused Clr4 in 200 μl of 10 mM Tris-HCl pH 7.5, 150 mM NaCl, 0.1 mM EDTA, 0.1% Triton X-100, 4°C, 2 h; SDS-PAGE and CBB staining; also at 0 mM NaCl and with pericentromeric RNA added; both purified

Amino acid sequences for entries named in this document (tags omitted). A change or cut given only in a name is not applied to a line headed by its entry. Residues count along the entry.
UniProt O60016, residues 1-191: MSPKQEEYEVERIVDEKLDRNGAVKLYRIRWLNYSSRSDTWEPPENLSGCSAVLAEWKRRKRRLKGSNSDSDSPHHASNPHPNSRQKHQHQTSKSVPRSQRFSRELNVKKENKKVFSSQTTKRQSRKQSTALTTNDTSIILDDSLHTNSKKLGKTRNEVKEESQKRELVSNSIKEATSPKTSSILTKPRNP

binding: binds
Substance: MBP-Clr4-C with deletion of the central region of the ARL (Δ) (from UniProt O60016) (domain or fragment)
